According to patent publication US10285972B2, “Trans-2-nonadecyl-4-hydroxymethyl-1,3-dioxolane and producing methodthereof” (Greenyn Biotechnology Co., Ltd, priority 2014, dated 2019):

Columns and labels:
liver = test: Organ weights, liver appearance and liver staining (H&E, Surius red) of mice fed 45% high-fat diet; format: in vivo, C57BL/6 mice; conditions: 8 weeks
Description: (§1) The 4 weeks-old male C57BL/6 mice were divided into 5 groups and treated with different feeding conditions, wherein the group 1 was the blank control fed with normal diet and water, the group 2 was fed with 45% high-fat diet and water, the group 3 was fed with 45% high-fat diet, water and 10 mg/Kg the compound TNHD, the group 4 was fed with 45% high-fat diet, water and 20 mg/Kg the compound TNHD, and the group 5 was fed with 45% high-fat diet, water and 200 mg/Kg Silymarin. Feeding for 8 weeks, and then all the mice were sacrificed.
The weights of liver, kidney and spleen of the mice in the each group were measured and recorded in table 2. The macroscopic appearance of the liver from the mice of the each group was shown as FIG. 6. Furthermore, the liver collected from the sacrificed mice in each groups was fixed with formalin. After the fixation, the liver tissue of the each group was paraffin-embedded for histology section and stained by H&E and Surius red for analysis.

[1] = Body weight and food intake of mice fed 45% high-fat diet for 8 weeks; format: in vivo, C57BL/6 mice; conditions: mean±SE
Description: as §1
At the end of the experiment, taking photographs of the each group were shown as FIG. 4.
The body weight and food intake in the each group were recorded in the table 1, wherein the data is expressed as the mean±SE.

[2] = group 3: 45% high-fat diet + 10 mg/Kg TNHD
[3] = group 4: 45% high-fat diet + 20 mg/Kg TNHD

Compound: CCCCCCCCCCCCCCCCCCC[C@@H]1OC[C@@H](CO)O1 (relative stereo) [TNHD, trans-2-nonadecyl-4-hydroxymethyl-1,3-dioxolane]
- Kidney weight (liver; [2]): 1.51 ± 0.25 g
- Spleen weight (liver; [2]): 0.30 ± 0.04 g
- Kidney weight (liver; [3]): 1.63 ± 0.24 g
- Spleen weight (liver; [3]): 0.53 ± 0.36 g
- Food intake [1, 2]: 4.5 ± 0.2 g/mouse/day
- Food intake [1, 3]: 3.7 ± 0.2 g/mouse/day
